Measurements published in PMC9256709.
Read-outs that look alike come from different tables or passages of the source. Results are given in words; binding and its absence hold for the method and conditions named. In cells and extracts the contact can be indirect. Some results given as binding are weak or reduced against the parent protein; the word gives no strength. For some of these results: Where a sequence is shown, tags or fusion partners need not be part of it. Values belong to the molecule of their own block, whether it stands above or below them.

Amino acid sequences for entries named in this document (tags omitted).
UniProt P29382: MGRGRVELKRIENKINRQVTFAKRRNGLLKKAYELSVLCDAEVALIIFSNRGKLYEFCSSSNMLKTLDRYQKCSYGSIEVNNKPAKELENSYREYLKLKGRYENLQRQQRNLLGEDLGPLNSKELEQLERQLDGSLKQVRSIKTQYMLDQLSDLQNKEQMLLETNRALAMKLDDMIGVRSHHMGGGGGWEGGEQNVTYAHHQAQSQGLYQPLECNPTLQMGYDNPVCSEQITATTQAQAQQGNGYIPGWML
UniProt P29386: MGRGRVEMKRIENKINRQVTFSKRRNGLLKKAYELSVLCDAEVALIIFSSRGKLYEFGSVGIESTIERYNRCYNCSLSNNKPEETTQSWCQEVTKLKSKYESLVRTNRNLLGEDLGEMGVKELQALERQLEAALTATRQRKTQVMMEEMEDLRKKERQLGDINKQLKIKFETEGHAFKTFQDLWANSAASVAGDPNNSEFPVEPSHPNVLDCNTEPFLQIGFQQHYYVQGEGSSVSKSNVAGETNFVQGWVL
UniProt Q9FIS1: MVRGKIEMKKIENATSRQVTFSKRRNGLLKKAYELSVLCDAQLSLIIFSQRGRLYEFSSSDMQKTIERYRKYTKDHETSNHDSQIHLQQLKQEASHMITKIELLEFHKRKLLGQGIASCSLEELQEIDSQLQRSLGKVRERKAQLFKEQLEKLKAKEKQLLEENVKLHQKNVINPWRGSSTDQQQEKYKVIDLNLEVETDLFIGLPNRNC

What was measured:
[1] = molecular target: SEP1 fused to YFP (Arabidopsis thaliana) (UniProt P29382); experiment: FRET or BRET; competition: FRET efficiency of FYF-CFP/SEP1-YFP in tobacco cells with 0, 25, 75 and 100% of unlabeled FYL2 added; mean of n > 4
[2] = molecular target: SEP1 fused to YFP (Arabidopsis thaliana) (UniProt P29382); experiment: FRET or BRET; pairs of one CFP (CyPet) and one YFP (YPet) fusion co-expressed in tobacco (N. benthamiana) leaf cells; signals in the nucleus by confocal microscopy, 440 nm excitation; FRET efficiency = FRET/CFP, mean of n > 4; steady-state scatter of pFRET against FRET efficiency
[3] = molecular target: AGL6 fused to YFP or CFP (Arabidopsis thaliana) (UniProt P29386); experiment: as above
[4] = molecular target: AGL6 fused to YFP or CFP (Arabidopsis thaliana) (UniProt P29386); experiment: as above; remark: listed apart in the source

binding [1]: binds
binding [2]: binds
binding [3]: binds
Molecule: FOREVER YOUNG FLOWER (FYF) fused to CFP or YFP (from UniProt Q9FIS1 1-210)

binding [4]: binds
B1: AGL15 fused to CFP or YFP (protein, UniProt Q38847 1-268)
chain: MGRGKIEIKRIENANSRQVTFSKRRSGLLKKARELSVLCDAEVAVIVFSKSGKLFEYSSTGMKQTLSRYGNHQSSSASKAEEDCAEVDILKDQLSKLQEKHLQLQGKGLNPLTFKELQSLEQQLYHALITVRERKERLLTNQLEESRLKEQRAELENETLRRQVQELRSFLPSFTHYVPSYIKCFAIDPKNALINHDSKCSLQNTDSDTTLQLGLPGEAHDRRTNEGERESPSSDSVTTNTSSETAERGDQSSLANSPPEAKRQRFSV
